Consider one substance from patent US20200384079A1, “Compositions of Fibroblast Growth Factor LIgands and Methods of Treating Patients Undergoing Ischemia-Reperfusion Therapy” (University of Cincinnati, priority 2017, published 2020).

Chains of the proteins cited; added tags and fusions are not shown. Lines headed by an entry give the natural chain unless they say otherwise; changes in a name come on top. Residues count along the entry.
UniProt Q04589, residues 22-822: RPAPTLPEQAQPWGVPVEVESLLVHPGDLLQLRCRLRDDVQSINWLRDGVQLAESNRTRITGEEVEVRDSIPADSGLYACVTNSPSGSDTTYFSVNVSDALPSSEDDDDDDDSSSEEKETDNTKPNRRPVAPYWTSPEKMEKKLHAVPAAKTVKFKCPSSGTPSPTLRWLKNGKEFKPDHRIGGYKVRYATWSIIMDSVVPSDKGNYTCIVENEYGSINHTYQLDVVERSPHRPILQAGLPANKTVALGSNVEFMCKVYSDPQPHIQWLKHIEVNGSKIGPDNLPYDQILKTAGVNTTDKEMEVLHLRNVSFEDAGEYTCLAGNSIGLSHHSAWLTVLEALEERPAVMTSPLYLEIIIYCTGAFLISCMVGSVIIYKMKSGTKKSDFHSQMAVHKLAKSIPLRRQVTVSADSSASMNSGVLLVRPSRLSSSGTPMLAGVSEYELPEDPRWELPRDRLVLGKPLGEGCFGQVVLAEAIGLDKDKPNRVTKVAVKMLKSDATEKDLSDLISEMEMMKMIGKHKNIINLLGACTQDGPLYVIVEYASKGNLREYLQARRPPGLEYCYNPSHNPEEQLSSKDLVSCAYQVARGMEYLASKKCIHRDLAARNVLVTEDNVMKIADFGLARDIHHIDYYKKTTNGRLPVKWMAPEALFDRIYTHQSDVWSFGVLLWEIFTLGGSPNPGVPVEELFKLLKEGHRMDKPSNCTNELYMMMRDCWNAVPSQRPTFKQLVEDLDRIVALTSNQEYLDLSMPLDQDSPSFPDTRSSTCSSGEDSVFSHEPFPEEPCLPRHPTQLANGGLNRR
UniProt P05230: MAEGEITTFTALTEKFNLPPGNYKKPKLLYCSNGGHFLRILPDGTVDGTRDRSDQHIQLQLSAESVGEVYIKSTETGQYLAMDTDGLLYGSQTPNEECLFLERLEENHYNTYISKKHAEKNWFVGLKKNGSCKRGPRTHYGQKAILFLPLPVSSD

These are yes or no findings as the source states them, for the method shown. Some results given as binding are weak or reduced against the parent protein; the word gives no strength.

This test deals with FGF receptor-1 (FGFR1) in the left ventricle of treated rats (rat) (UniProt Q04589). Briefly: in vivo rat heart; inferred from FGFR1 and ERK1/2 phosphorylation immunoblots. (A western blot detects proteins with antibodies after separation by electrophoresis.)

On to “FGF1^ΔHBS (FGF1 carrying the K127D/K128Q/K133V triple mutation in its HS-binding site) (from UniProt P05230 1-155) (ligand)”, for which the binding result was “binds”.
